{"source": "patent US20260048134A1", "about": "“PEPTIDE-BASED DELIVERY AGENT AND METHOD OF MAKING AND USING THE SAME” (EndoRel Biosciences LLC, priority 2022, published 2026)", "system": "HeLa LUC/705 cell line", "assay": "HeLa LUC/705 luciferase reporter assay (Morpholino splice correction with delivery agent)", "format": "cell-based, human", "conditions": "both 1% (low) and 80% (high) serum", "note": "Not every detail of the peptide structures is certain; ends, links or a residue may be inferred. Where a SMILES comes first, the peptide text is derived from it. [ ]: non-standard residue; d: D form. The star is where a group is joined. ξ: configuration not given here. Butanoyl(4-N+Me2Octyl) = CCCCCCCC[N+](C)(C)CCCC(=O)*; ξ2Nal = NC(Cc1ccc2ccccc2c1)C(=O)O"}
{"molecule": "CCCCCCCC[N+](C)(C)CCCC(=O)NCCCC[C@H](NC(=O)[C@H](CCCCNC(=O)CCC[N+](C)(C)CCCCCCCC)NC(=O)[C@H](CCC(N)=O)NC(=O)[C@H](CC(C)C)NC(=O)[C@H](CC(C)C)NC(=O)[C@H](CCC(N)=O)NC(=O)[C@H](CCC(N)=O)NC(=O)[C@H](CC(C)C)NC(=O)[C@H](CC(C)C)NC(=O)[C@H](CCC(N)=O)NC(=O)[C@H](CCC(N)=O)NC(=O)[C@H](CC(C)C)NC(=O)[C@H](CC(C)C)NC(=O)[C@H](CCC(N)=O)NC(C)=O)C(=O)NCC(=O)NC(Cc1ccc2ccccc2c1)C(=O)NCC(N)=O", "note": "(stereo partly shown) [96-10, Cap-[Mask]-[2×K(LA)-[GNalG′]] (Ac-QLLQQLLQQLLQK(Butanoyl(4-N+Me2Octyl))K(Butanoyl(4-N+Me2Octyl))G[ξ2Nal]G-NH2)", "values": [{"measurement": "average luciferase activity (LUC) per protein", "result": "little activity compared to the control"}]}
